These are yes or no findings as the source states them, for the method shown. Some binding calls cover weakened binding; strength is not graded here.
Key:
[1] = molecular target: EX P22 VLP (expanded form of the bacteriophage P22 virus-like particle) (bacteriophage P22 (filing: P22 VLP from Salmonella typhimurium)) (UniProt P26747); assay: SEC-MALS, EX P22 incubated with excess DecΔ11
[2] = molecular target: EX P22 VLP (expanded form of the bacteriophage P22 virus-like particle) (bacteriophage P22 (filing: P22 VLP from Salmonella typhimurium)) (UniProt P26747); assay: SPR
[3] = molecular target: EX P22 VLP (expanded form of the bacteriophage P22 virus-like particle) (bacteriophage P22 (filing: P22 VLP from Salmonella typhimurium)) (UniProt P26747); assay: SEC-MALS-QELS, binding in solution

The chains behind the UniProt entries cited, without tags or fusion partners. Residues count along the entry.
UniProt P26747, residues 2-430: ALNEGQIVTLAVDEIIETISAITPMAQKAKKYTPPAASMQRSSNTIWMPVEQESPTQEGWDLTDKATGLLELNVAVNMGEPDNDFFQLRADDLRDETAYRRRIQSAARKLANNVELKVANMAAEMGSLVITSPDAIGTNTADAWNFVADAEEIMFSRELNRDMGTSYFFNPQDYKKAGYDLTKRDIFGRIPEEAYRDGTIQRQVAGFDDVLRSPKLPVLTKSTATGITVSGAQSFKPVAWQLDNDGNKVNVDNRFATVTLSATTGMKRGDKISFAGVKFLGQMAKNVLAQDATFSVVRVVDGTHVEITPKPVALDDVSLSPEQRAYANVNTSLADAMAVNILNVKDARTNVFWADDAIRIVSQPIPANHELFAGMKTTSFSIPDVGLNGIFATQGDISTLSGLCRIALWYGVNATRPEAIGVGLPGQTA

Measured: binding

B1: DecΔ11 (Dec lacking the first 11 N-terminal residues) (other)
chain: MGSSHHHHHHSQDPLYKDADGVYVSALPIKAIKYANDGSANAEFDGPYADQYMSAQTVAVFKPEVGGYLFRSQYGELLYMSKTAFEANYTSASGSVANAETADKLSTARTITLTGAVTGSASFDGSANVTIETTSGS
binds: [1] | [2] | [3]

Reference: patent US20170321220A1 (INDIANA UNIVERSITY RESEARCH AND TECHNOLOGY, published 2017)
